In publication PMC6902597:
These are yes or no findings as the source states them, for the method shown. Binding seen in cells or lysates may run through a third protein. Some results given as binding are weak or reduced against the parent protein; the word gives no strength.

Sequences of proteins named here, by UniProt entry; tags and fusion partners are left off.
UniProt Q9H6I2: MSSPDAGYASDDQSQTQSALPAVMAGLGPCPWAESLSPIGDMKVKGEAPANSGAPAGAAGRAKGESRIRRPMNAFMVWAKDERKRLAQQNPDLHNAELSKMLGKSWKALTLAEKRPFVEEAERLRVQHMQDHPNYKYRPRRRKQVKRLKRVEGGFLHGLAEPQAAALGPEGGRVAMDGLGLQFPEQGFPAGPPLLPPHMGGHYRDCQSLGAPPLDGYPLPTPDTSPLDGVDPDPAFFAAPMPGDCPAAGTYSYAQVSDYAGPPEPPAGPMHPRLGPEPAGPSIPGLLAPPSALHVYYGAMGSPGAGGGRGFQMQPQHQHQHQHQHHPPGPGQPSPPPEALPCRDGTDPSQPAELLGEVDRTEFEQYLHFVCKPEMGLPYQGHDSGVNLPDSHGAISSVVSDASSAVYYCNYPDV
UniProt P35222: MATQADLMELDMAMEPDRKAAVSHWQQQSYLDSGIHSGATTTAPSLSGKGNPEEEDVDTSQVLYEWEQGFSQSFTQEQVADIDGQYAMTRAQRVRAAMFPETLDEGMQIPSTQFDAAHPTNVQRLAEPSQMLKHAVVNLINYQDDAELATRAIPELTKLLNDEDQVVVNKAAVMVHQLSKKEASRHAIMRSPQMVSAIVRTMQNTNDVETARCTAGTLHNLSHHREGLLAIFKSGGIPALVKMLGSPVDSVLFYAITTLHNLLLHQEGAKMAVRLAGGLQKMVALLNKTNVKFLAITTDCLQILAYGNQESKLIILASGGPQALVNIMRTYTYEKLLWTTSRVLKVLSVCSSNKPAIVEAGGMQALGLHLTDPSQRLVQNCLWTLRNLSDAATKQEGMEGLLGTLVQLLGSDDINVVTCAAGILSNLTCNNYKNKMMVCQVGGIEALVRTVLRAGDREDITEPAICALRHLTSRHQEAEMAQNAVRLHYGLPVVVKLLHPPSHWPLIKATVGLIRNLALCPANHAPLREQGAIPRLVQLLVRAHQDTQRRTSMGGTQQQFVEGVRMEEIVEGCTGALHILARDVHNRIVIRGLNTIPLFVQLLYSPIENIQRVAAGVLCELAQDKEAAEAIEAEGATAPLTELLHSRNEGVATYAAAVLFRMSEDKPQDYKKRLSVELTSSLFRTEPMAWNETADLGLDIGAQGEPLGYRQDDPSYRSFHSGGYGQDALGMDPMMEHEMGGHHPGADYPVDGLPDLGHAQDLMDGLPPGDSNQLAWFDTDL

Target: Sox17, endogenous (human (endogenous in TPC-1)) (UniProt Q9H6I2)
Assay: co-IP; endogenous proteins, cytoplasm, cells without IL-22 (Additional file 1: Fig. S3)

“β-catenin, endogenous (from UniProt P35222 1-781)” was tested, and the binding was “binds”.
